Values from PubChem BioAssay AID504805 (Drosophila RNAi Screening Center, 2011).
Purpose: 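Knock-downs that cause poly(A) RNA to build up in the nucleus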 (primary screen). Cell system: Drosophila S2R+ cells. Knock-down reagent: long dsRNA against Drosophila genes, 0.25 µg dsRNA per well. Time to read-out: 4 days. Read-out: 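Poly(A) RNA detected by in situ hybridisation with a fluorescent oligo-dT probe, nuclei stained with a DNA dye; images judged by eye, phenotype noted per replicate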.
This is not the whole library: the list holds selected reagents. 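Phenotypes are words from visual inspection of images, not measured scores.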 Reagents against one gene are numbered here. A plus sign joins genes that one reagent is predicted to hit. Reagent sequences are not shown.

predicted target	reagent	phenotype, replicate 1	phenotype, replicate 2
RpS18 (GeneID 37292)	1	poly(A) RNA held back in the nucleus	
IscU (GeneID 41059)	1	poly(A) RNA held back in the nucleus	
CCT7 (GeneID 41054)	1	poly(A) RNA held back in the nucleus	
CG3124 (GeneID 37688)	1	poly(A) RNA held back in the nucleus	
flfl (GeneID 41675)	1	poly(A) RNA held back in the nucleus	
Nxt1 (GeneID 37769)	1	poly(A) RNA held back in the nucleus	poly(A) RNA held back in the nucleus
CG31523 (GeneID 326148)	1	poly(A) RNA held back in the nucleus	
alphaTub84B (GeneID 40848)	1	poly(A) RNA held back in the nucleus	
Neos (GeneID 38795)	1	poly(A) RNA held back in the nucleus	
wfs1 (GeneID 42679)	1	poly(A) RNA held back in the nucleus	
stg (GeneID 43466)	1	poly(A) RNA held in nucleus; cells enlarged	
yem (GeneID 43439)	1	poly(A) RNA held back in the nucleus	
CG42700 (GeneID 36330)	1	poly(A) RNA held back in the nucleus	poly(A) RNA held back in the nucleus
U2A (GeneID 35713)	1	poly(A) RNA held back in the nucleus	
a (GeneID 43852)	1	poly(A) RNA held back in the nucleus	
CG14448 (GeneID 40497)	1	poly(A) RNA held back in the nucleus	
Achl (GeneID 36605)	1	poly(A) RNA held back in the nucleus	
CG14441 (GeneID 31611)	1	poly(A) RNA held back in the nucleus	
CG34280 (GeneID 5740878)	1	poly(A) RNA held back in the nucleus	
RpL37-1 (GeneID 32446)	1	poly(A) RNA held back in the nucleus	
RunxB (GeneID 33051)	1	poly(A) RNA held back in the nucleus	
CG42258 (GeneID 32196)	1	poly(A) RNA held back in the nucleus	
RpL23 (GeneID 37628)	1	poly(A) RNA held back in the nucleus	
Paip2 (GeneID 41591)	1	poly(A) RNA held back in the nucleus	
eyg (GeneID 39419)	1	rounded cells with compacted RNA	
CG10384 (GeneID 37567)	1		poly(A) RNA held back in the nucleus
CG15358 (GeneID 33366)	1	poly(A) RNA held back in the nucleus	
rols (GeneID 39368)	1	poly(A) RNA held back in the nucleus	
CG10339 (GeneID 37854)	1	poly(A) RNA held back in the nucleus	
Med (GeneID 43725)	1	poly(A) RNA held back in the nucleus	
tho2 (GeneID 326153)	1	poly(A) RNA held back in the nucleus	
E(bx) (GeneID 44811)	1	poly(A) RNA held back in the nucleus	
CG9517 (retired record) (GeneID 32417)	1	poly(A) RNA held back in the nucleus	
cg (GeneID 36571)	1	poly(A) RNA held back in the nucleus	poly(A) RNA held back in the nucleus
Ten-a (GeneID 32183)	1	poly(A) RNA held back in the nucleus	
Ten-a (GeneID 32183)	2	poly(A) RNA held back in the nucleus	
CG12860 (GeneID 36629)	1	poly(A) RNA held back in the nucleus	
RpS15Aa + RpS15Ab	1	poly(A) RNA held back in the nucleus	
Grip (GeneID 50391)	1	poly(A) RNA held back in the nucleus	
CG3795 (GeneID 31128)	1	poly(A) RNA held back in the nucleus	
pum (GeneID 41094)	1	poly(A) RNA held back in the nucleus	poly(A) RNA held back in the nucleus
Rbf2 (GeneID 41941)	1	poly(A) RNA held back in the nucleus	
CG2310 (GeneID 43473)	1	poly(A) RNA held back in the nucleus	
Rbm13 (GeneID 31818)	1	poly(A) RNA held back in the nucleus	
CG2321 (GeneID 43471)	1	poly(A) RNA held back in the nucleus	
mip120 (GeneID 36499)	1	poly(A) RNA held back in the nucleus	
Eip93F (GeneID 44936)	1	poly(A) RNA held back in the nucleus	
RpS11 (GeneID 36321)	1	poly(A) RNA held back in the nucleus	
e(y)2 (GeneID 45848)	1	poly(A) RNA held back in the nucleus	
SmE (GeneID 34080)	1	poly(A) RNA held back in the nucleus	poly(A) RNA held back in the nucleus
CG18281 (GeneID 40274)	1	poly(A) RNA held back in the nucleus	
tsr (GeneID 37841)	1	poly(A) RNA held back in the nucleus	
Spt6 (GeneID 44000)	1	poly(A) RNA held back in the nucleus	
CG5618 (GeneID 40241)	1	poly(A) RNA held back in the nucleus	
CG13743 (GeneID 35911)	1	poly(A) RNA held back in the nucleus	poly(A) RNA held back in the nucleus
ths (GeneID 36258)	1	poly(A) RNA held back in the nucleus	poly(A) RNA held back in the nucleus
bru2 (GeneID 250811)	1	poly(A) RNA held back in the nucleus	
Su(z)2 (GeneID 36432)	1	poly(A) RNA held back in the nucleus	poly(A) RNA held back in the nucleus
B-H2 (GeneID 32723)	1	poly(A) RNA held back in the nucleus	poly(A) RNA held back in the nucleus
CR13656 (GeneID 8674041)	1	poly(A) RNA held back in the nucleus	
ClC-a (GeneID 41428)	1	poly(A) RNA held back in the nucleus	
eIF2Bgamma (GeneID 36722)	1	poly(A) RNA held back in the nucleus	
ND-39 (GeneID 40272)	1	poly(A) RNA held back in the nucleus	
fs(1)K10 (GeneID 47781)	1	poly(A) RNA held back in the nucleus	
CG12071 (GeneID 43660)	1	poly(A) RNA held back in the nucleus	
CG9784 (GeneID 32629)	1	poly(A) RNA held back in the nucleus	
CG5810 (GeneID 42513)	1	poly(A) RNA held back in the nucleus	
eRF1 (GeneID 40240)	1	poly(A) RNA held back in the nucleus	
CG34178 + CG34177	1	poly(A) RNA held back in the nucleus	
SK (GeneID 31456)	1	poly(A) RNA held back in the nucleus	
nab (GeneID 3346237)	1	poly(A) RNA held back in the nucleus	
CG30334 (GeneID 246545)	1	poly(A) RNA held back in the nucleus	
Syt7 (GeneID 43783)	1	poly(A) RNA held back in the nucleus	
CG11406 (GeneID 37877)	1	poly(A) RNA held back in the nucleus	
ZnT77C (GeneID 40271)	1	poly(A) RNA held back in the nucleus	
Picot (GeneID 36865)	1	poly(A) RNA held back in the nucleus	
CG1835 (GeneID 33057)	1	poly(A) RNA held back in the nucleus	
CG10993 (GeneID 32344)	1	poly(A) RNA held back in the nucleus	
smog (GeneID 33690)	1	poly(A) RNA held back in the nucleus	
CG3123 (GeneID 33478)	1	poly(A) RNA held back in the nucleus	
CG5377 (GeneID 42645)	1	poly(A) RNA held back in the nucleus	
CG3566 (GeneID 31562)	1	poly(A) RNA held back in the nucleus	
betaNACtes1 (GeneID 32360)	1	poly(A) RNA held back in the nucleus	
CG10479 (GeneID 38674)	1	poly(A) RNA held back in the nucleus	
RpL27 (GeneID 43103)	1	poly(A) RNA held back in the nucleus	
Cpr35B (GeneID 34846)	1	poly(A) RNA held back in the nucleus	
mnb (GeneID 32771)	1	poly(A) RNA held back in the nucleus	
Cap-G (GeneID 36440)	1	poly(A) RNA held back in the nucleus	poly(A) RNA held back in the nucleus
Fs (GeneID 2768836)	1	poly(A) RNA held back in the nucleus	
CG42750 (GeneID 35090)	1	poly(A) RNA held back in the nucleus	
ChT (GeneID 42245)	1	poly(A) RNA held back in the nucleus	
aurB (GeneID 34504)	1	poly(A) RNA held back in the nucleus	
CG42673 (GeneID 39111)	1	poly(A) RNA held back in the nucleus	
CG42673 (GeneID 39111)	2	poly(A) RNA held back in the nucleus	
CG5758 (GeneID 35083)	1	poly(A) RNA held back in the nucleus	
eIF2gamma (GeneID 41843)	1	poly(A) RNA held back in the nucleus	
CG15345 (retired record) (GeneID 50402)	1	poly(A) RNA held back in the nucleus	
CG17684 (GeneID 3355066)	1	poly(A) RNA held back in the nucleus	
CG13151 (GeneID 36374)	1	poly(A) RNA held back in the nucleus	
CG15254 (GeneID 34915)	1	poly(A) RNA held back in the nucleus	
poe (GeneID 46243)	1	poly(A) RNA held back in the nucleus	
5-HT1B (GeneID 37191)	1	poly(A) RNA held back in the nucleus	poly(A) RNA held back in the nucleus
CG31688 + CG31687	1	poly(A) RNA held back in the nucleus	
dpr12 (GeneID 50320)	1	poly(A) RNA held back in the nucleus	
CG30414 (GeneID 37705)	1	poly(A) RNA held back in the nucleus	
